Crude mass and crude yield data for two substances are collected here from patent US4481194A (SmithKline Beckman Corporation, priority 1984, dated 1984).

The data set in a line: general procedure: Boc solid-phase peptide synthesis; Boc-Arg(Tos)-BHA (benzhydrylamine) resin, 0.709 mmol/g available; DCC / 1-hydroxybenzotriazole (HBT). As to conditions: whole synthesis; for crude yield: scale of the general procedure 0.355 mmol each.
[1] abbreviates: one disulfide bridge, sequence written open.

HELM strings list residues between dots; [ac] is acetyl, [am] amide, other brackets name non-standard units.

With “PEPTIDE1{[Pmp].[D-Tyr(Et)].F.V.N.C.R.[am]}$PEPTIDE1,PEPTIDE1,1:R3-6:R3$$$V2.0”, the crude mass is given as 80 mg and the crude yield was found to be 23%.

On to Pmp-D-Tyr(Et)-Phe-Abu-Asn-Cys-Arg(NH2), for which, under setting [1], the crude mass was determined as 115 mg and the crude yield was 33%.
